Measurements reported in PubChem BioAssay AID1053208 (Peter MacCallum Cancer Centre, 2014).
In all, the deposit lists about 17,000 reagents; shown is an unselected part. 788 of all reagents (4.7%) were called active. 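Calls rest on z-score classes alone; an extra cut-off of viability at most 70% of control was not applied to them.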 The numbers tell different reagents against one gene apart.

Aim: 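Find knock-downs that sensitise mouse osteosarcoma cells to doxorubicin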 (primary screen)
System: mouse osteosarcoma cells, early-passage culture from an engineered mouse model of fibroblastic bone tumour
Knock-down reagent: siRNA pool against mouse genes, 40 nM
Duration: about 120 h (48 h before drug, then 72 h with drug)
Challenge: doxorubicin 100 nM for 72 h, roughly 30-40% inhibitory dose
Read-out: 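Luminescent ATP signal taken as viability with or without 100 nM doxorubicin for 72 h; mean of two wells set against non-targeting siRNA and turned into robust z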
Scale: viability z-score with doxorubicin and doxorubicin viability vs non-targeting: higher = more viable cells under doxorubicin; viability z-score without drug: higher = more viable cells with knock-down alone; z-score of drug to no-drug ratio: higher = less drug sensitisation by knock-down
Rule for the call: 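Called active if knock-down leaves viability unchanged without drug (z within -2 to 2) but lowers it with doxorubicin (z at or under -2)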

target	reagent	combined z-score class	viability z-score with doxorubicin	viability z-score without drug	z-score of drug to no-drug ratio	doxorubicin viability vs non-targeting	call
Mpi (mannose phosphate isomerase)	1	no change with or without drug	-0.79	-0.17	-0.56	0.87	inactive
Prokr2 (prokineticin receptor 2)	1	no change with or without drug	-0.56	-0.84	0.11	0.89	inactive
Rps6kc1 (ribosomal protein S6 kinase C1)	1	high cell count with doxorubicin only	3.04	1.18	2.36	1.21	inactive
Mapkbp1 (mitogen-activated protein kinase binding protein 1)	1	no change with or without drug	0.56	0.51	0.34	0.99	inactive
Grhl1 (grainyhead like transcription factor 1)	1	low cell count with doxorubicin only	-2.36	-0.84	-1.91	0.73	active
Mrps28 (mitochondrial ribosomal protein S28)	1	no change with or without drug	-1.46	0.34	-1.57	0.81	inactive
Ceacam1 (CEA cell adhesion molecule 1)	1	no change with or without drug	-1.12	-1.52	0	0.84	inactive
Gapdhs (glyceraldehyde-3-phosphate dehydrogenase, spermatogenic)	1	no change with or without drug	0.56	-0.17	0.79	0.99	inactive
Col14a1 (collagen, type XIV, alpha 1)	1	no change with or without drug	0.34	0.17	0.34	0.97	inactive
Ogg1 (8-oxoguanine DNA-glycosylase 1)	1	no change with or without drug	0	0.17	0	0.94	inactive
Cyp2c38 (cytochrome P450, family 2, subfamily c, polypeptide 38)	1	no change with or without drug	-0.45	0.84	-0.9	0.9	inactive
Gsdmc3 (gasdermin C3)	1	no change with or without drug	1.46	1.69	0.45	1.07	inactive
Ralgds (ral guanine nucleotide dissociation stimulator)	1	no change with or without drug	0.9	-0.34	1.35	1.02	inactive
Paqr7 (progestin and adipoQ receptor family member VII)	1	no change with or without drug	-0.34	-0.67	0.22	0.91	inactive
Mixl1 (Mix paired-like homeobox)	1	no change with or without drug	-0.45	1.85	-1.46	0.9	inactive
Add3 (adducin 3)	1	high cell count with and without drug	2.14	3.37	0	1.13	inactive
Kat5 (K(lysine) acetyltransferase 5)	1	no change with or without drug	1.8	0.17	1.91	1.1	inactive
Eftud2 (elongation factor Tu GTP binding domain containing 2)	1	low cell count with and without drug	-6.74	-4.55	-5.4	0.34	inactive
Ccdc12 (coiled-coil domain containing 12)	1	no change with or without drug	-1.12	-0.17	-1.01	0.84	inactive
Cplx4 (complexin 4)	1	no change with or without drug	0.22	1.35	-0.56	0.96	inactive
Ccdc40 (coiled-coil domain containing 40)	1	no change with or without drug	0.9	0.17	0.9	1.02	inactive
Siah1b (siah E3 ubiquitin protein ligase 1B)	1	no change with or without drug	-0.22	0.51	-0.45	0.92	inactive
Endog (endonuclease G)	1	no change with or without drug	1.01	0.84	0.56	1.03	inactive
Dynll2 (dynein light chain LC8-type 2)	1	no change with or without drug	0.22	0.34	0.11	0.96	inactive
Or51q1 (olfactory receptor family 51 subfamily Q member 1)	1	no change with or without drug	-1.57	-1.18	-0.79	0.8	inactive
Ppl (periplakin)	1	low cell count with doxorubicin only	-2.02	-1.35	-1.24	0.76	active
Or5aq7 (olfactory receptor family 5 subfamily AQ member 7)	1	no change with or without drug	0.67	0.51	0.45	1	inactive
Pcdhb17 (protocadherin beta 17)	1	low cell count with doxorubicin only	-2.25	-0.84	-1.8	0.74	active
Tbx6 (T-box 6)	1	no change with or without drug	-1.24	-0.51	-0.9	0.83	inactive
Srp14 (signal recognition particle 14)	1	no change with or without drug	0	0.84	-0.45	0.94	inactive
Supt16 (SPT16, facilitates chromatin remodeling subunit)	1	low cell count with doxorubicin only	-3.37	-1.69	-2.59	0.64	active
Gcnt1 (glucosaminyl (N-acetyl) transferase 1, core 2)	1	no change with or without drug	-1.12	0.67	-1.46	0.84	inactive
Hsd3b6	1	no change with or without drug	0	0.51	-0.22	0.94	inactive

Targets listed so far whose gene name starts with M or m:
target	reagent	combined z-score class	viability z-score with doxorubicin	viability z-score without drug	z-score of drug to no-drug ratio	doxorubicin viability vs non-targeting	call
Mpi (mannose phosphate isomerase)	1	no change with or without drug	-0.79	-0.17	-0.56	0.87	inactive
Mapkbp1 (mitogen-activated protein kinase binding protein 1)	1	no change with or without drug	0.56	0.51	0.34	0.99	inactive
Mrps28 (mitochondrial ribosomal protein S28)	1	no change with or without drug	-1.46	0.34	-1.57	0.81	inactive
Mixl1 (Mix paired-like homeobox)	1	no change with or without drug	-0.45	1.85	-1.46	0.9	inactive

Next entries:
target	reagent	combined z-score class	viability z-score with doxorubicin	viability z-score without drug	z-score of drug to no-drug ratio	doxorubicin viability vs non-targeting	call
Pilrb1 (paired immunoglobin-like type 2 receptor beta 1)	1	no change with or without drug	0.34	-1.35	1.46	0.97	inactive
Zfp60 (zinc finger protein 60)	1	high cell count without drug only	0.22	2.36	-1.12	0.96	inactive
Zfp60 (zinc finger protein 60)	2	no change with or without drug	1.12	1.69	0.11	1.04	inactive
Med26 (mediator complex subunit 26)	1	low cell count with doxorubicin only	-3.6	-0.84	-3.26	0.62	active
Brd3 (bromodomain containing 3)	1	no change with or without drug	0.56	0.34	0.45	0.99	inactive
Epc2 (enhancer of polycomb homolog 2)	1	no change with or without drug	1.35	-0.17	1.69	1.06	inactive
Sack1h (scaffolding CK1 anchoring protein H)	1	high cell count without drug only	0.34	2.02	-0.79	0.97	inactive
Tmc6 (transmembrane channel-like gene family 6)	1	no change with or without drug	0	0.17	0	0.94	inactive
Ghitm (growth hormone inducible transmembrane protein)	1	no change with or without drug	0.22	1.18	-0.45	0.96	inactive
Sprr2f (small proline-rich protein 2F)	1	high cell count with and without drug	2.59	2.53	0.9	1.17	inactive
Per1 (period circadian clock 1)	1	no change with or without drug	-0.22	-0.17	0	0.92	inactive
Phex (phosphate regulating endopeptidase homolog, X-linked)	1	no change with or without drug	0.45	-0.17	0.67	0.98	inactive
Slc27a1	1	no change with or without drug	0	1.35	-0.79	0.94	inactive
Hcls1 (hematopoietic cell specific Lyn substrate 1)	1	no change with or without drug	0.67	1.52	-0.22	1	inactive
Sult1a1 (sulfotransferase family 1A, phenol-preferring, member 1)	1	no change with or without drug	1.35	1.01	0.79	1.06	inactive
Ryk (receptor-like tyrosine kinase)	1	no change with or without drug	0.34	-0.17	0.56	0.97	inactive
C1qb (complement component 1, q subcomponent, beta polypeptide)	1	no change with or without drug	0	-0.84	0.67	0.94	inactive
